Laboratory results published in patent US20120294860A1 (TORAY INDUSTRIES, published 2012).
Results are given in words; binding and its absence hold for the method and conditions named. For part of these data: In cells and extracts the contact can be indirect. Some binding calls cover weakened binding; strength is not graded here.

Assays:
[1] = target: T1, human CAPRIN-1 protein expressed on the surface of human cancer cells (human) (UniProt Q14444); experiment: flow cytometry on MDA-MB-231V human breast cancer cells, hybridoma culture supernatant
T1 sequence: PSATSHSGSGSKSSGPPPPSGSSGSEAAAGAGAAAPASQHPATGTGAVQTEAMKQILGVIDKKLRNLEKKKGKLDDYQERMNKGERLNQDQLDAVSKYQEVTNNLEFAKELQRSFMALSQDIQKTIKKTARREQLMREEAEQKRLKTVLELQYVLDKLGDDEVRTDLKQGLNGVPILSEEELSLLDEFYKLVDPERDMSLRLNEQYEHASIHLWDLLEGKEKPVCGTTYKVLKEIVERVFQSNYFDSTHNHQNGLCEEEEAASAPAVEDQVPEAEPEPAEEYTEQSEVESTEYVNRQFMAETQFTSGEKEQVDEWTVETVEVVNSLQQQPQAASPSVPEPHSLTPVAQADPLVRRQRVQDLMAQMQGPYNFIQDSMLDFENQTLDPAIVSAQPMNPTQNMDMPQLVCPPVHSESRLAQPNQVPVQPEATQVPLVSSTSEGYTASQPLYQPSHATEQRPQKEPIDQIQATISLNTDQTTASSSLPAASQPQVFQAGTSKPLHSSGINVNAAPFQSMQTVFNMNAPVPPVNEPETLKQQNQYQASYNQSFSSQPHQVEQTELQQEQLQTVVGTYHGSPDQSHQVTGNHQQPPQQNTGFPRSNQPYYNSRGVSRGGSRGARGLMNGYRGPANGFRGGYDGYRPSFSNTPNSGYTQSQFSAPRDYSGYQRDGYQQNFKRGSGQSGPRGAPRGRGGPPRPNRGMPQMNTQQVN

[2] = target: T1, human CAPRIN-1 protein expressed on the surface of human cancer cells (human); experiment: as described in the legend of FIG. 2 (MDA-MB-157 cells)
[3] = target: T2, polypeptide of SEQ ID NO: 37, partial CAPRIN-1 sequence (human); experiment: trypsin digestion of antibody-bound reduced/alkylated CAPRIN-1, protein A beads, LC-MS of the eluate
T2 sequence (peptide): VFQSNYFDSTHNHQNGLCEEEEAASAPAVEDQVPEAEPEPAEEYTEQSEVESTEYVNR

Measured: binding

B1: anti-CAPRIN-1 monoclonal antibody #1 (antibody, V domains shown)
VH: EVQLHQFGAELVKPGASVKISCKASGYTFTDYNMDWVKQSHGKSLEWIGDINPNYDSTSYNQKFKGKATLTVDKSSSTAYMELRSLTSEDTAVYYCARSRSYDYEGFAYWGQGTLVTVSA
VL: DIQMTQSPASLSASVGETVTITCRASGNIHNYLAWYQQKQGKSPQLLVYNAKTLADGVPSRFSGSGSGTQYSLKINSLQPEDFGSYYCQHFWSTLTFGAGTKLELKR
binds: all assays above
